Assay type in all cases: cell-based
One assay concerns HCT116 cancer cells. The assay is described as follows: MTT cytotoxicity assay, HCT116. The conditions noted are these: Homo sapiens, HCT-116, 48 h, means (SD) of three trials. The method, then: (§1) The cytotoxicity effect of the new compounds was assessed in an MTT assay against chronic myelogenous leukemia (K652), colorectal (HCT116), and breast (MCF7) cancer cell lines. […] The data is presented in Table 4 as IC50 values (in µM).
(§2) Cells were obtained from American Type Culture Collection. The cell culture DMEM was obtained from Life Technologies and Invitrogen and supplied with 10% FBS from Hyclone, 1% penicillin-streptomycin, and 10 µg/mL insulin from Sigma-Aldrich.
(§3) The MTT assay was used to monitor the in vitro cytotoxicity of our compounds. The cells were treated with serial concentrations of the compounds to be tested, which ranged from 0.1–10 µM at 37 °C for 48 h. Then, the cells were incubated with 10% v/v reconstituted MTT at 37 °C for 3 h. The multiwell plates were then read using Wallac Victor2 1420 multilabel counter, and the absorbance was measured at a wavelength of 450 (ex) and 590 nm (em).
(In general: Tetrazolium dyes change colour on reduction, which living cells bring about.)

Another assay has as its system K652 cancer cells. Nature of the assay: MTT cytotoxicity assay, K652. The conditions noted are these: K652, 48 h, read-out: IC50 K652. As for the experimental part:
as §1, §2, §3

Assay [1] has as its system MCF7, HCT116, and K652 cancer cells. The assay is described as follows: MTT cytotoxicity assay, average of the three cell lines. The method, then:
as §1, §2, §3

For the next assay, the system named is FHC normal cells. The assay is described as follows: MTT assay against FHC normal cells. The note with it: normal noncancerous cells. The method, then:
To ensure that the cytotoxicity effect of our compounds observed on the previous assay was selective to cancer cells, the most cytotoxic agents to cancer cells (1a, 1c, 1d, 3b, and 4b) were evaluated on normal cells.
as §3

SMILES strings stand for the structures.

On to `CN[C@@H]1C[C@H]2O[C@@](C)([C@@H]1OC)n1c3ccccc3c3c4c(c5c6ccccc6n2c5c31)C(=O)NC4` [Staurosporine, reference compound], for which the 50% inhibitory concentration (IC50) (in general, the concentration at which inhibition is half-maximal) in the assay on HCT116 cancer cells stood at 10.9 ± 0.26 µM; in the assay on K652 cancer cells, 22.1 ± 0.56 µM; in assay [1], 17.1 µM; in the assay on FHC normal cells it was 38.2 ± 0.97 µM.

Source of the values: paper PMC10383573, “New Imadazopyrazines with CDK9 Inhibitory Activity as Anticancer and Antiviral: Synthesis, In Silico, and In Vitro Evaluation Approaches” (Pharmaceuticals, 2023).
